No constants are given. Whether binding was seen depends on the method and setting. In cells and extracts the contact can be indirect. A yes stands for co-enrichment or nearness to the bait. Other partners may have been found. Sequences can lack the tags named with a protein.
What was measured:
[1] = molecular target: 6His-Flag-TMK1^cyt-K616R (isolated cytosolic domain of TMK1, kinase-dead) (Arabidopsis thaliana); assay: affinity purification with mass spectrometry; HA-MAKR2 co-expressed in E. coli with 6His-Flag-TMK1^cyt or its K616R form; soluble fraction on IMAC-nickel resin (20 mM Tris pH8, NaCl 150mM, imidazole washes, elution with 400 mM imidazole); eluate analysed by ESI/MS/MS
[2] = molecular target: 6His-Flag-TMK1^cyt (isolated cytosolic domain of TMK1, wild type) (Arabidopsis thaliana); assay: as above

binding [1]: binds
binding [2]: binds
B1: HA-MAKR2 (protein, UniProt Q9SH58 1-411)
chain: MEAFSLLNYWKNSGGAVTFLPHSSESSSSSLCRYSAGESIGTTTIVTSVTETEDEEADENDDEGPFFDLEFALPAEEEDTDGGVGREGDSDCTDGGCEFKFTLSSCSGGEDRVDPDSLDDVFFKETIVEEVEPPTSSEQQTCSVKAPAAQLSASILKTATKLRVFMLGMKKSKLIQAKSEANFGSEDLDKQTHPPPPLSLSPESQQKSTVTVNLKVEEVPIISLFSRENSSKNSSSSSSSSSSSSSSLKKQNGNESVVSDEKRFVMMQKYLKKVKPLYIRVSRRYGEKLRHSGQLTAPSSARSTAEKADSPVATKTNNKPGNNINIPAGLKVVRKHLGKSRSSSSTATTPSSTTATVTTQSESRRRDDSLLQQQDSIQSAILHCKRSFNSSRDKDPSVLPRSVSEPSSYEK

From paper PMC7809621
